# Measurements reported in the supplement of paper PMC8728848.
# Some of the results follow.
# B1: SUN4 (Saccharomyces cerevisiae), P53616 (protein)
# chain: MGSSHHHHHHSSGLVPRGSHNGSIYGDLADFSGPYEKFEDGTIPCGQFPSGQGVIPISWLDEGGWSGVENTDTSTGGSCKEGSYCSYACQPGMSKTQWPSDQPSDGRSIGGLLCKDGYLYRSNTDTDYLCEWGVDAAYVVSELSNDVAICRTDYPGTENMVIPTYVQAGDSLPLTVVDQDTYYTWQGLKTSAAYYVNNAGISVEDACVWGSSSSGVGNWAPLNFGAGSSDGVAYLSLIPNPNNGNALNFNVKIVAADDSSTVNGECIYENGSFSGGSDGCTVSVTAGKAKFVLYN
# How the values were obtained:
# Assay in all cases: glycan array binding signal (z-score within array); higher = stronger binding
# Settings in all cases: glycan notation: IUPAC condensed, linker removed; mutation: Q318A
# [1] = molecular target: GalNAc(a1-3)GalNAc(b1-3)Gal(a1-4)Gal(b1-4)GlcNAc
# In short: (§1)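 The binding signal is a Z-score computed within each array and averaged over linkers. Arrays of the same protein sequence at different concentrations or buffers were also averaged together. Data originate from 3228 arrays in the Consortium for Functional Glycomics database, kept only where the protein sequence was available.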
# GalNAc(b1-3)Gal = molecular target: GalNAc(b1-3)Gal
# In short: as §1
# [2] = molecular target: GalNAc(b1-3)Gal(a1-4)Gal(b1-4)GlcNAc
# In short: as §1
# [3] = molecular target: GalNAc(b1-3)Gal(a1-4)Gal(b1-4)GlcNAc(b1-3)Gal(b1-4)Glc
# In short: as §1
# [4] = molecular target: GalNAc(b1-3)Gal(a1-6)Gal(b1-4)Glc
# In short: as §1
# GalNAc(b1-3)GalNAc = molecular target: GalNAc(b1-3)GalNAc
# In short: as §1
# GalNAc(b1-3)GlcNAc = molecular target: GalNAc(b1-3)GlcNAc
# In short: as §1
# GalNAc(b1-4)Gal(b1-4)Glc = molecular target: GalNAc(b1-4)Gal(b1-4)Glc
# In short: as §1
# GalNAc(b1-4)GlcNAc = molecular target: GalNAc(b1-4)GlcNAc
# In short: as §1
# [5] = molecular target: GalNAc(b1-4)GlcNAc(b1-2)Man
# In short: as §1
# [6] = molecular target: GalNAc(b1-4)GlcNAc(b1-2)Man(a1-3)[GalNAc(b1-4)GlcNAc(b1-2)Man(a1-6)]Man(b1-4)GlcNAc(b1-4)GlcNAc
# In short: as §1
# [7] = molecular target: GalNAc(b1-4)GlcNAc(b1-3)GalNAc(b1-4)GlcNAc
# In short: as §1
# GalNAc(b1-4)GlcNAc6S = molecular target: GalNAc(b1-4)GlcNAc6S
# In short: as §1
# GalNAc(b1-6)GalNAc = molecular target: GalNAc(b1-6)GalNAc
# In short: as §1
# GalNAc3S(b1-4)GlcNAc = molecular target: GalNAc3S(b1-4)GlcNAc
# In short: as §1
# GalNAc3S(b1-4)GlcNAc3S = molecular target: GalNAc3S(b1-4)GlcNAc3S
# In short: as §1
# [8] = molecular target: GalNAc3S(b1-4)[Fuc(a1-3)]GlcNAc
# In short: as §1
# GalNAc4S6S(b1-4)GlcNAc = molecular target: GalNAc4S6S(b1-4)GlcNAc
# In short: as §1
# GalNAc6S(b1-4)GlcNAc = molecular target: GalNAc6S(b1-4)GlcNAc
# In short: as §1
# Glc(a1-4)Glc = molecular target: Glc(a1-4)Glc
# In short: as §1
# [9] = molecular target: Glc(a1-4)Glc(a1-4)Glc(a1-4)Glc
# In short: as §1
# Glc(a1-6)Glc(a1-6)Glc = molecular target: Glc(a1-6)Glc(a1-6)Glc
# In short: as §1
# [10] = molecular target: Glc(a1-6)Glc(a1-6)Glc(a1-6)Glc
# In short: as §1
# Glc(b1-4)Glc = molecular target: Glc(b1-4)Glc
# In short: as §1
# Glc(b1-6)Glc = molecular target: Glc(b1-6)Glc
# In short: as §1
# GlcA(b1-3)Gal = molecular target: GlcA(b1-3)Gal
# In short: as §1
# GlcA(b1-3)GlcNAc = molecular target: GlcA(b1-3)GlcNAc
# In short: as §1
# GlcA(b1-6)Gal = molecular target: GlcA(b1-6)Gal
# In short: as §1
# [11] = molecular target: GlcA3S(b1-3)Gal(b1-4)GlcNAc(b1-2)Man
# In short: as §1
# [12] = molecular target: GlcA3S(b1-3)Gal(b1-4)GlcNAc(b1-3)Gal(b1-4)Glc
# In short: as §1
# [13] = molecular target: GlcNAc(a1-3)Gal(b1-4)GlcNAc
# In short: as §1
# [14] = molecular target: GlcNAc(a1-4)Gal(b1-3)GlcNAc
# In short: as §1
# [15] = molecular target: GlcNAc(a1-4)Gal(b1-4)GalNAc
# In short: as §1
# [16] = molecular target: GlcNAc(a1-4)Gal(b1-4)GlcNAc
# In short: as §1
# [17] = molecular target: GlcNAc(a1-4)Gal(b1-4)GlcNAc(b1-3)Gal(b1-4)Glc
# In short: as §1
# [18] = molecular target: GlcNAc(a1-4)Gal(b1-4)GlcNAc(b1-3)Gal(b1-4)GlcNAc
# In short: as §1
# [19] = molecular target: GlcNAc(a1-4)Gal(b1-4)GlcNAc(b1-3)Gal(b1-4)GlcNAc(b1-3)Gal(b1-4)GlcNAc
# In short: as §1
# [20] = molecular target: GlcNAc(a1-4)Gal(b1-4)GlcNAc(b1-3)Gal(b1-4)[Fuc(a1-3)]GlcNAc(b1-3)Gal(b1-4)[Fuc(a1-3)]GlcNAc
# In short: as §1
binder,measurement,setting,value
B1,glycan array binding signal (z-score),[1],0.562
same,glycan array binding signal (z-score),GalNAc(b1-3)Gal,0.858
same,glycan array binding signal (z-score),[2],0.305
same,glycan array binding signal (z-score),[3],-0.596
same,glycan array binding signal (z-score),[4],-1.14
same,glycan array binding signal (z-score),GalNAc(b1-3)GalNAc,0.446
same,glycan array binding signal (z-score),GalNAc(b1-3)GlcNAc,-0.837
same,glycan array binding signal (z-score),GalNAc(b1-4)Gal(b1-4)Glc,1.66
same,glycan array binding signal (z-score),GalNAc(b1-4)GlcNAc,0.304
same,glycan array binding signal (z-score),[5],-0.117
same,glycan array binding signal (z-score),[6],1.17
same,glycan array binding signal (z-score),[7],-1.26
same,glycan array binding signal (z-score),GalNAc(b1-4)GlcNAc6S,0.208
same,glycan array binding signal (z-score),GalNAc(b1-6)GalNAc,-0.508
same,glycan array binding signal (z-score),GalNAc3S(b1-4)GlcNAc,0.499
same,glycan array binding signal (z-score),GalNAc3S(b1-4)GlcNAc3S,0.514
same,glycan array binding signal (z-score),[8],-0.017
same,glycan array binding signal (z-score),GalNAc4S6S(b1-4)GlcNAc,0.173
same,glycan array binding signal (z-score),GalNAc6S(b1-4)GlcNAc,-0.136
same,glycan array binding signal (z-score),Glc(a1-4)Glc,-0.008
same,glycan array binding signal (z-score),[9],0.474
same,glycan array binding signal (z-score),Glc(a1-6)Glc(a1-6)Glc,0.304
same,glycan array binding signal (z-score),[10],0.21
same,glycan array binding signal (z-score),Glc(b1-4)Glc,1.26
same,glycan array binding signal (z-score),Glc(b1-6)Glc,-0.673
same,glycan array binding signal (z-score),GlcA(b1-3)Gal,0.144
same,glycan array binding signal (z-score),GlcA(b1-3)GlcNAc,-0.324
same,glycan array binding signal (z-score),GlcA(b1-6)Gal,1.12
same,glycan array binding signal (z-score),[11],-0.145
same,glycan array binding signal (z-score),[12],-1.07
same,glycan array binding signal (z-score),[13],-0.75
same,glycan array binding signal (z-score),[14],-0.269
same,glycan array binding signal (z-score),[15],-0.54
same,glycan array binding signal (z-score),[16],-0.911
same,glycan array binding signal (z-score),[17],0.243
same,glycan array binding signal (z-score),[18],-0.654
same,glycan array binding signal (z-score),[19],1.38
same,glycan array binding signal (z-score),[20],0.137

# A portion taken from the entries so far, for reference:
binder,measurement,setting,value
B1,glycan array binding signal (z-score),[17],0.243
same,glycan array binding signal (z-score),[18],-0.654
same,glycan array binding signal (z-score),[19],1.38
